According to publication PMC11157819:
Results are given in words; binding and its absence hold for the method and conditions named. Binding seen in cells or lysates may run through a third protein. Some binding calls cover weakened binding; strength is not graded here.

The chains behind the UniProt entries cited, without tags or fusion partners.
UniProt P40763: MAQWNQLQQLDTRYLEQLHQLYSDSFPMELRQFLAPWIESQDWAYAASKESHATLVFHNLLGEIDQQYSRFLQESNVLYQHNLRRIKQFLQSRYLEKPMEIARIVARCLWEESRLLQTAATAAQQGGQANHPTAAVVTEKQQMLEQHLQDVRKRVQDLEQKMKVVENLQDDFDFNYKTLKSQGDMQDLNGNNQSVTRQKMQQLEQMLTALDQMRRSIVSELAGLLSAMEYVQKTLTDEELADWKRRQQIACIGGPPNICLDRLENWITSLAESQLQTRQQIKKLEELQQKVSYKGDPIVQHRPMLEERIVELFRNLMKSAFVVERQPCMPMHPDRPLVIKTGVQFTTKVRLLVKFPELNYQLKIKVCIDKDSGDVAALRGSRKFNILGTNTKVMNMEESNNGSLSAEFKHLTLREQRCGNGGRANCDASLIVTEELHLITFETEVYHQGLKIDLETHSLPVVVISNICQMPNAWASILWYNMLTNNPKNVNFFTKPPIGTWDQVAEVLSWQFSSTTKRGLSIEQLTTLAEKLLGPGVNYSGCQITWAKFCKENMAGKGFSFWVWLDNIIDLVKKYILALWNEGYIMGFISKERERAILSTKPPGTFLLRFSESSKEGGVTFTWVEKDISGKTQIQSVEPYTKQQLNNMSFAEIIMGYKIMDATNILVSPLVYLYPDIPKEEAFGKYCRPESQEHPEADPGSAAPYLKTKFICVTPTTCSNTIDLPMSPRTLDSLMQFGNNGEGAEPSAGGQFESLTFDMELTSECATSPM
UniProt Q14289: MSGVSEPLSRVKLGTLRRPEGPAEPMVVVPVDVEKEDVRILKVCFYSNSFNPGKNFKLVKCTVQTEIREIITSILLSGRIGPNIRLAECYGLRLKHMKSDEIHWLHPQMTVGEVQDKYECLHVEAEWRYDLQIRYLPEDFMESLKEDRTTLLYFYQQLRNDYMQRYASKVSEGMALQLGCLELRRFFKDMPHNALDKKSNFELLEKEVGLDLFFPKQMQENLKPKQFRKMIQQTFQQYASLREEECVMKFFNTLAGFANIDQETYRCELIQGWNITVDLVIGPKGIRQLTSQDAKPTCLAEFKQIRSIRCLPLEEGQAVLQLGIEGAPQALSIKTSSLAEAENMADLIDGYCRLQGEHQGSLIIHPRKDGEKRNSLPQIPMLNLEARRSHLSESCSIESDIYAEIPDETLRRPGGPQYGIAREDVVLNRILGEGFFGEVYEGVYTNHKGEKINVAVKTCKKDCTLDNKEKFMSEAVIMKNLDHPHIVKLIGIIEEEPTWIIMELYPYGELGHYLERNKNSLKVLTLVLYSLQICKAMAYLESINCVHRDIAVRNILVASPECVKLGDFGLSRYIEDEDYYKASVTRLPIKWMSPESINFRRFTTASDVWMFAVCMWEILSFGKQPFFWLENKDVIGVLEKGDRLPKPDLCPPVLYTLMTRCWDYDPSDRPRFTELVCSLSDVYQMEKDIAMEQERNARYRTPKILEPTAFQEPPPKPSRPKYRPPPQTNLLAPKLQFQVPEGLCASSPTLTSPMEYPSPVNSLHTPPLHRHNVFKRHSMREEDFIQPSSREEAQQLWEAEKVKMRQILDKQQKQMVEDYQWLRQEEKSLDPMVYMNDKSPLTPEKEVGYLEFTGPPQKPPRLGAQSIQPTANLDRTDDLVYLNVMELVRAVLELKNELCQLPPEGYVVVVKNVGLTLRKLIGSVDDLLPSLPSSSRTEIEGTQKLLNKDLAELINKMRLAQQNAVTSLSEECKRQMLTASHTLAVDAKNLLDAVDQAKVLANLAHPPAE

Columns and labels:
[1] = biological target: Signal transducer and activator of transcription 3 (STAT3) (human (endogenous in A549 and H460)) (UniProt P40763); assay: co-IP; endogenous co-IP from lysates of confluent NSCLC cells (A549, H460); lysate incubated overnight at 4 °C with 1-2 µg of IgG or antibody against the target protein, protein A/G beads, western blot
[2] = biological target: STAT3-MYC (UniProt P40763); assay: co-IP; exogenous co-IP: HEK293T cells transfected with PYK2-FLAG and STAT3-MYC plasmids for 48 h; lysate incubated overnight at 4 °C with antibody, protein A/G beads, western blot

Substance	binding [1]	binding [2]
p-PYK2(Tyr402) (from UniProt Q14289 1-1009)	binds	
PYK2-FLAG (from UniProt Q14289 1-1009)		binds
